# Assay results taken from the supplement of paper PMC12823440, “Inhibitors supercharge kinase turnover through native proteolytic circuits” (Nature, 2025).
# Protein sequences, listed by entry. Tags and fused reporters are not part of them. Lines headed by an entry give the natural chain unless they say otherwise; changes in a name come on top.
# UniProt Q9UQB9: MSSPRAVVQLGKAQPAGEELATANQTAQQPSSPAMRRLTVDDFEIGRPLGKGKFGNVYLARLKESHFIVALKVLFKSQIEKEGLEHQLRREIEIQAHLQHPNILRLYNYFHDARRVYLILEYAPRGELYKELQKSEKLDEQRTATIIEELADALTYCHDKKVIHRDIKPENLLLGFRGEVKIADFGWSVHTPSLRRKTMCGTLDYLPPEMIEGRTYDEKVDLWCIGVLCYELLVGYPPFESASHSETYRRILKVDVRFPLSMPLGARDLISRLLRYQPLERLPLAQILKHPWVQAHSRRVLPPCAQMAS
# UniProt P48729: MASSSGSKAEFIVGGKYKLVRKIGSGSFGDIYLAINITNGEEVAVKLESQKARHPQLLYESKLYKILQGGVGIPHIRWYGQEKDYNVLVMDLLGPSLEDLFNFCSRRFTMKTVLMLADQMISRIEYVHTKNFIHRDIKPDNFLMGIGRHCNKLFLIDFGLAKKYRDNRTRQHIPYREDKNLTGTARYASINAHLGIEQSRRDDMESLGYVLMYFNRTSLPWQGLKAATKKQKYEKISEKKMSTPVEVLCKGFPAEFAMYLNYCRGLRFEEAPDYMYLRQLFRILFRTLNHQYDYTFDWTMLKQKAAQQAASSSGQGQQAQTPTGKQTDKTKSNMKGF
# UniProt Q06187: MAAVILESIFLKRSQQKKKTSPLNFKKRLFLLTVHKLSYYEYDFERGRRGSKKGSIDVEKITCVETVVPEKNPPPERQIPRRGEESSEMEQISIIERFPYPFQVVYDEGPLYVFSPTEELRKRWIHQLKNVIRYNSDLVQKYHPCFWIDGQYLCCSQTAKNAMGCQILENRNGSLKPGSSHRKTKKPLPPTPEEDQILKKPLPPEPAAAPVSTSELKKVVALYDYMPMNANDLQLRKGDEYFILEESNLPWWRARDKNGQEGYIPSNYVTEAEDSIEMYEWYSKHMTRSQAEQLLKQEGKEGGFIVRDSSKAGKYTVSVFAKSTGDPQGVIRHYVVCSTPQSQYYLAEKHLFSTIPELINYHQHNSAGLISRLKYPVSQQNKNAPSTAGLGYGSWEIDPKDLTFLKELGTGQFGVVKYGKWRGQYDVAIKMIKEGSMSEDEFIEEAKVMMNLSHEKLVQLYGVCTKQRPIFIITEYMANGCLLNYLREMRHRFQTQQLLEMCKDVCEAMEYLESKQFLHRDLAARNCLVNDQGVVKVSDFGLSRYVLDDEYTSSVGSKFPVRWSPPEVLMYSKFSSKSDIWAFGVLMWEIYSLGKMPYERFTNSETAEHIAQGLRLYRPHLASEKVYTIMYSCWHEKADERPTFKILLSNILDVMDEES
# UniProt Q05397, whole entry, looked up: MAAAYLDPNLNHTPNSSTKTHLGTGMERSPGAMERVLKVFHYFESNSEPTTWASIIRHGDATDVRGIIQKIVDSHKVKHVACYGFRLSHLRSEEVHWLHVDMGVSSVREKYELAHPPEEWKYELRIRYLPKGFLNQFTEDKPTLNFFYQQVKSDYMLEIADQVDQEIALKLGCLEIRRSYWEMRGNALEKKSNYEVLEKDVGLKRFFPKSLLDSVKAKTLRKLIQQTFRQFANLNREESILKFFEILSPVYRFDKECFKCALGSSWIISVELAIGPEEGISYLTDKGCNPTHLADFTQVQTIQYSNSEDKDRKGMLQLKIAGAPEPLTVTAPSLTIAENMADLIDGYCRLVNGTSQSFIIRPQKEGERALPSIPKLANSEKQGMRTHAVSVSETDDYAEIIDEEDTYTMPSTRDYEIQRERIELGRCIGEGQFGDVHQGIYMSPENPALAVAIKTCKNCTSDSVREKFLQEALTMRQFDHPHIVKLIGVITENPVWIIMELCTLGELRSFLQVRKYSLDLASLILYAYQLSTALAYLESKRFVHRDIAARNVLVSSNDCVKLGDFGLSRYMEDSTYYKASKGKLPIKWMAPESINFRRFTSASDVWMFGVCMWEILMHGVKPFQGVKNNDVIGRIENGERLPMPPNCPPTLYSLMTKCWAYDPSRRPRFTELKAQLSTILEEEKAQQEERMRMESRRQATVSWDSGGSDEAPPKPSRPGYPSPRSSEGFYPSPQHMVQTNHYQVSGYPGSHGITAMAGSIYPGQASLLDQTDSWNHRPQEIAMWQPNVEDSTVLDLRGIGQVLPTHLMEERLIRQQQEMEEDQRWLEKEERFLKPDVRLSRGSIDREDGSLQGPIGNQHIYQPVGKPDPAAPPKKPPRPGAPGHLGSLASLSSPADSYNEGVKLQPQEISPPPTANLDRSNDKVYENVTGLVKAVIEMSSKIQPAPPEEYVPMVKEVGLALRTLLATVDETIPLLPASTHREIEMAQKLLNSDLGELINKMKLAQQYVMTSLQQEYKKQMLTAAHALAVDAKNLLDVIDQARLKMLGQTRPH
# UniProt P10398: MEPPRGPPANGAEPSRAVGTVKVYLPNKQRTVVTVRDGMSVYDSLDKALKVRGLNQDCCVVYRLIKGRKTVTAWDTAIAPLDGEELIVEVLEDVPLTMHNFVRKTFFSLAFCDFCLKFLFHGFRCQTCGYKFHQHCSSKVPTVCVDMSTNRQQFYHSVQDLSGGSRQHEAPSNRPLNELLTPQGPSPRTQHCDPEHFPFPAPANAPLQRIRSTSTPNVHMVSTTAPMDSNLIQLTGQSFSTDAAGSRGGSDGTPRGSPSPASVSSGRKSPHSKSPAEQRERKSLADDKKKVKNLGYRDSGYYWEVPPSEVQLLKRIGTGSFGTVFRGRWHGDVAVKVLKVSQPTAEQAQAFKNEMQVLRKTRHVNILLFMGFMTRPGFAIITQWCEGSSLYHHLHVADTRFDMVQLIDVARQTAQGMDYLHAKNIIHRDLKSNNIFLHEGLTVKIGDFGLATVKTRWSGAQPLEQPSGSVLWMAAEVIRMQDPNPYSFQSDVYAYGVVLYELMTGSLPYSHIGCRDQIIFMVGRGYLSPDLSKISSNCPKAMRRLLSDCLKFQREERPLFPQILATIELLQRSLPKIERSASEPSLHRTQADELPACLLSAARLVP
# UniProt Q16288, whole entry, looked up: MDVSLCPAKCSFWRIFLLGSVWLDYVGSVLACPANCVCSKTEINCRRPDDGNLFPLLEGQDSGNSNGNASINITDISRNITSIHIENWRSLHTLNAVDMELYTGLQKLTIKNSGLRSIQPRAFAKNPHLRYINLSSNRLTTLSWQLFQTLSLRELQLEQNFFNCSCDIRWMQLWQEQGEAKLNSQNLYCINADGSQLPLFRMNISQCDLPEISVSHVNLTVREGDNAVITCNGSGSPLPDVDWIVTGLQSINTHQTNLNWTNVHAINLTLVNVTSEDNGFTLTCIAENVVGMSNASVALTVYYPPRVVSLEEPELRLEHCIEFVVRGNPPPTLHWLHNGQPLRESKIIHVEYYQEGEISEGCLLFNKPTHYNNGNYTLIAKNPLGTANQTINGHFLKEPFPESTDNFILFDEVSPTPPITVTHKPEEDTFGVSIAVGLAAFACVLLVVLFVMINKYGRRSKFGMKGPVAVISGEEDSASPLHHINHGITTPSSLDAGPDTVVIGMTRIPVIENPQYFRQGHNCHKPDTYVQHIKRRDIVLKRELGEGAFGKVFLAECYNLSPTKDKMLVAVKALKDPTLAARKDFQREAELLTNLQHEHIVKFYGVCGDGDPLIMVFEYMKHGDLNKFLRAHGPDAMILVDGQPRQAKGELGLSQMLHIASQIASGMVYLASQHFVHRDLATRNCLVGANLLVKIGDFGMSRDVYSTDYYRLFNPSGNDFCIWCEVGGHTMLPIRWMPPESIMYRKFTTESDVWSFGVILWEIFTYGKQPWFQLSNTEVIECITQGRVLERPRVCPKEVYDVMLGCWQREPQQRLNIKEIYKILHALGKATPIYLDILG
# UniProt P36888, whole entry: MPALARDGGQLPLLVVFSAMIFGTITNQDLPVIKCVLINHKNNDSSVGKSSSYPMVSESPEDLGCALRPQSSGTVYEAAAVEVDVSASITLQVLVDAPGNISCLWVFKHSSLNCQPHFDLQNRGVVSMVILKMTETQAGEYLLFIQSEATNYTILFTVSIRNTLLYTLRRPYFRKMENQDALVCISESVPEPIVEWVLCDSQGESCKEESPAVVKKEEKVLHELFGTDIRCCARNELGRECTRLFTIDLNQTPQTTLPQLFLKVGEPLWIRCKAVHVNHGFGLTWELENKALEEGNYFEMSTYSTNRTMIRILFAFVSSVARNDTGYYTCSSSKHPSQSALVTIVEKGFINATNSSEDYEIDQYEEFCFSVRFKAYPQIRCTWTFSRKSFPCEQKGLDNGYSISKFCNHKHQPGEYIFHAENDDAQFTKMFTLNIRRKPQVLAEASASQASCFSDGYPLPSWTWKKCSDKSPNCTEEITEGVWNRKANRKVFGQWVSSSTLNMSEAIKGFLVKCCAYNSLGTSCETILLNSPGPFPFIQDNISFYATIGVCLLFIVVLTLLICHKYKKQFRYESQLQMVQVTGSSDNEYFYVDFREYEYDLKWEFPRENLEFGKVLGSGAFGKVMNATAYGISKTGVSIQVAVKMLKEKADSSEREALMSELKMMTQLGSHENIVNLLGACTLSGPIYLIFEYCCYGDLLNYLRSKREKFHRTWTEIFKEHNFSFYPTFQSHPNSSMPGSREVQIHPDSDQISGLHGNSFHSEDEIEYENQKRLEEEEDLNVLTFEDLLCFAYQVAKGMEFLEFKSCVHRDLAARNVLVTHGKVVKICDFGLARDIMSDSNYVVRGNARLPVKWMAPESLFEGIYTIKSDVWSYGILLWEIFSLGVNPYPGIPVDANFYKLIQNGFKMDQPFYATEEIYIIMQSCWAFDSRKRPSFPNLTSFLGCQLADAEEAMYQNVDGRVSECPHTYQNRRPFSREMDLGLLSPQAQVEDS
# UniProt P21802, whole entry, looked up: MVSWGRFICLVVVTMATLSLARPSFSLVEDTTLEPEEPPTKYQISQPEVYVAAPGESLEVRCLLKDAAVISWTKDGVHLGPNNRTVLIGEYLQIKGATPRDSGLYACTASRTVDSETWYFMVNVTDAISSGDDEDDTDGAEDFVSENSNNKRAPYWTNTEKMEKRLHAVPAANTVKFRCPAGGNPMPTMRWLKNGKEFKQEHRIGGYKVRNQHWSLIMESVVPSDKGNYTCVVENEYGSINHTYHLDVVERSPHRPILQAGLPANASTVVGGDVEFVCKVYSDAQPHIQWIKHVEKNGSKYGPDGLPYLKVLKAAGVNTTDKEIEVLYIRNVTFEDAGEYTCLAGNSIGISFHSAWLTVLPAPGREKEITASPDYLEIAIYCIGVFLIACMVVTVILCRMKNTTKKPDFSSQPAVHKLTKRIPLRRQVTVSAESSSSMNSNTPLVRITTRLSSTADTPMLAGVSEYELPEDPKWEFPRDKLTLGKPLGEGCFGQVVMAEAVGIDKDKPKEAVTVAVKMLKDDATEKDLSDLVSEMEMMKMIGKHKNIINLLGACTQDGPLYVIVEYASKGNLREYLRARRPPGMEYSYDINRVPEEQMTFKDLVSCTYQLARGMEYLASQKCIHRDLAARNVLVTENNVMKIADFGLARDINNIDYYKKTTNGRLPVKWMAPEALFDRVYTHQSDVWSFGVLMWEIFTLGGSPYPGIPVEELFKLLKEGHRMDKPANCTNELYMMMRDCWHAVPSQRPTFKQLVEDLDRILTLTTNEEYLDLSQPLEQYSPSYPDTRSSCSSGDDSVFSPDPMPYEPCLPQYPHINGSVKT
# UniProt Q9UBF8: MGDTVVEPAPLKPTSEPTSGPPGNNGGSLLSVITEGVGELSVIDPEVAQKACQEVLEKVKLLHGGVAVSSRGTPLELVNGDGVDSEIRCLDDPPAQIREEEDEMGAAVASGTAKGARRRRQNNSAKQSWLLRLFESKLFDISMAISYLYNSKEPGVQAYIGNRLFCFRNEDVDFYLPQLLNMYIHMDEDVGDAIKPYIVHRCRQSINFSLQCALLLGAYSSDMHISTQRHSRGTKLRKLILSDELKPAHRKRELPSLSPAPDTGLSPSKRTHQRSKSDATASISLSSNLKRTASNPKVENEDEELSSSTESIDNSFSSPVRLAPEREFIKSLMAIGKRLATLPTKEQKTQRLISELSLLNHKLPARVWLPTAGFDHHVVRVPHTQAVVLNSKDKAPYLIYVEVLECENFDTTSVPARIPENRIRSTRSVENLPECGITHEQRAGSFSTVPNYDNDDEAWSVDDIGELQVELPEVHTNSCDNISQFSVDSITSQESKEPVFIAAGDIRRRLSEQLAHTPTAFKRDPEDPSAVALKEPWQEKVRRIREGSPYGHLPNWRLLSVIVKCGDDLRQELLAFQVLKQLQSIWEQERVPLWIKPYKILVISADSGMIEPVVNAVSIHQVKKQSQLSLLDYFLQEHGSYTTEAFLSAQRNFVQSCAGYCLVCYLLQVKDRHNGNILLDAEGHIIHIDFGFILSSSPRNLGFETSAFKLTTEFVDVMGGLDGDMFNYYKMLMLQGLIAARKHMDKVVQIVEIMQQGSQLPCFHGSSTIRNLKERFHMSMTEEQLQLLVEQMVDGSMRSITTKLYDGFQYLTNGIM
# The list shows a part of the results. The calls rarely recur for the same compound in another form.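 Kinases, fused to nanoluciferase, were expressed in K562 cells; luminescence was measured every 4 h from 2 to 18 h as percent of control (DMSO = 100%, positive control = 0%). A time point is decreased if signal falls significantly (2 sigma). Hits were called by the authors by a rule that is not shown; the count of time points alone does not decide it.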
# Legend:
# Assay in all cases: number of time points (of 5) at which kinase-Nluc abundance scored as decreased, DMSO-normalised (count); higher = more persistent destabilization
# [1] = compound: CNC(=O)c1ccccc1Nc1cc(Nc2ccc(N3CCOCC3)cc2OC)ncc1C(F)(F)F; conditions: 10 µM; K562; 2-18 h
# G-5555 (hydrochloride) = compound: CNc1ncc2cc(-c3ccc(-c4cccc(C)n4)cc3Cl)c(=O)n(C[C@H]3OC[C@H](N)CO3)c2n1 [G-5555 (hydrochloride)]; conditions: 10 µM; K562; 2-18 h
# [2] = compound: CNc1ncc2cc(-c3ccc(-c4cccc(C)n4)cc3Cl)c(=O)n(C[C@H]3OC[C@H](N)CO3)c2n1; conditions: 10 µM; K562; 2-18 h
# [3] = compound: COC(=O)[C@H](CC(C)C)NC(=O)c1ccc(NC[C@@H](N)CS)cc1-c1cccc2ccccc12 [GGTI298 (Trifluoroacetate)]; conditions: 10 µM; K562; 2-18 h
# [4] = compound: COC(=O)[C@H](CC(C)C)NC(=O)c1ccc(NC[C@@H](N)CS)cc1-c1cccc2ccccc12; conditions: 10 µM; K562; 2-18 h
# AZD3229 Tosylate = compound: COCCOc1cc(F)c2c(Nc3ccc(NC(=O)Cn4cc(C(C)C)nn4)cc3)ncnc2c1 [AZD3229 Tosylate]; conditions: 10 µM; K562; 2-18 h
# [5] = compound: COCCOc1cc(F)c2c(Nc3ccc(NC(=O)Cn4cc(C(C)C)nn4)cc3)ncnc2c1; conditions: 10 µM; K562; 2-18 h
# Ferulic acid (sodium) = compound: COc1cc(/C=C/C(=O)O)ccc1O [Ferulic acid (sodium)]; conditions: 10 µM; K562; 2-18 h
# Ferulic acid = compound: COc1cc(/C=C/C(=O)O)ccc1O [Ferulic acid]; conditions: 10 µM; K562; 2-18 h
# ALK2-IN-4 (succinate) = compound: COc1cc2c(-c3cnn4cc(N5CCC(N6CCN(C)CC6)CC5)cnc34)ccnc2cc1F [ALK2-IN-4 (succinate)]; conditions: 10 µM; K562; 2-18 h
# [6] = compound: COc1cc2c(-c3cnn4cc(N5CCC(N6CCN(C)CC6)CC5)cnc34)ccnc2cc1F; conditions: 10 µM; K562; 2-18 h
# Cediranib (maleate) = compound: COc1cc2c(Oc3ccc4[nH]c(C)cc4c3F)ncnc2cc1OCCCN1CCCC1 [Cediranib (maleate)]; conditions: 2.5 µM; K562; 2-18 h
# Cediranib = compound: COc1cc2c(Oc3ccc4[nH]c(C)cc4c3F)ncnc2cc1OCCCN1CCCC1 [Cediranib]; conditions: 2.5 µM; K562; 2-18 h
# [7] = compound: COc1cc2c(cc1OC)-c1c(C)c3ccc(OC)c(OC)c3c[n+]1CC2 [Dehydrocorydaline (chloride)]; conditions: 10 µM; K562; 2-18 h
# Dehydrocorydaline = compound: COc1cc2c(cc1OC)-c1c(C)c3ccc(OC)c(OC)c3c[n+]1CC2 [Dehydrocorydaline]; conditions: 10 µM; K562; 2-18 h
# [8] = compound: COc1cc2nccc(Nc3cc(OC)c(OC)c(OC)c3)c2cc1OC [GAK inhibitor 49 (hydrochloride)]; conditions: 10 µM; K562; 2-18 h
# GAK inhibitor 49 = compound: COc1cc2nccc(Nc3cc(OC)c(OC)c(OC)c3)c2cc1OC [GAK inhibitor 49]; conditions: 10 µM; K562; 2-18 h
# Cabozantinib (S-malate) = compound: COc1cc2nccc(Oc3ccc(NC(=O)C4(C(=O)Nc5ccc(F)cc5)CC4)cc3)c2cc1OC [Cabozantinib (S-malate)]; conditions: 10 µM; K562; 2-18 h
# Cabozantinib = compound: COc1cc2nccc(Oc3ccc(NC(=O)C4(C(=O)Nc5ccc(F)cc5)CC4)cc3)c2cc1OC [Cabozantinib]; conditions: 2.5 µM; K562; 2-18 h
# KN-93 (hydrochloride) = compound: COc1ccc(S(=O)(=O)N(CCO)c2ccccc2CN(C)C/C=C/c2ccc(Cl)cc2)cc1 [KN-93 (hydrochloride)]; conditions: 2.5 µM; K562; 2-18 h
Target,number of time points [1],number of time points (G-5555 (hydrochloride)),number of time points [2],number of time points [3],number of time points [4],number of time points (AZD3229 Tosylate),number of time points [5],number of time points (Ferulic acid (sodium)),number of time points (Ferulic acid),number of time points (ALK2-IN-4 (succinate)),number of time points [6],number of time points (Cediranib (maleate)),number of time points (Cediranib),number of time points [7],number of time points (Dehydrocorydaline),number of time points [8],number of time points (GAK inhibitor 49),number of time points (Cabozantinib (S-malate)),number of time points (Cabozantinib),number of time points (KN-93 (hydrochloride))
EGFR_L718V (UniProt P00533),0,0,0,0,0,0,0,0,0,0,0,0,0,0,0,0,0,0,1,0
IRAK3 (UniProt Q9Y616),0,0,0,0,0,0,0,0,0,0,0,0,0,0,0,0,0,2,1,0
MAPKAPK2 (UniProt P49137),0,0,0,0,0,0,0,0,0,0,0,0,0,0,0,0,0,0,0,0
RIPK2 (UniProt O43353),0,0,0,0,0,0,0,0,0,4,3,0,0,0,0,3,3,2,2,0
RPS6KA1 (UniProt Q15418),0,0,0,0,0,0,0,0,0,0,0,0,0,0,0,0,0,0,0,0
ERBB3 (UniProt P21860),0,0,0,0,0,1,0,0,0,0,0,0,0,0,0,0,2,3,3,0
EGFR_L861Q (UniProt P00533),0,0,0,0,0,0,0,0,0,0,0,0,0,0,0,2,3,0,1,0
AURKC (UniProt Q9UQB9),0,0,0,0,0,0,0,0,0,0,0,0,0,0,0,0,0,1,0,0
FYN (UniProt P06241),0,3,1,0,0,0,0,0,0,0,0,0,0,0,0,0,1,3,3,0
PTK2B (UniProt Q14289),0,0,0,0,0,0,0,0,0,0,0,0,0,0,0,0,0,0,1,0
MKNK1 (UniProt Q9BUB5),0,2,0,0,0,0,0,0,0,0,0,0,0,0,0,0,1,1,2,0
MAP2K1 (UniProt Q02750),0,0,0,0,0,0,0,0,0,0,0,0,0,0,0,0,0,0,0,0
JAK1 (UniProt P23458),0,0,0,0,0,0,0,0,0,0,0,0,0,0,0,0,0,3,1,0
CSK (UniProt P41240),0,0,0,0,0,0,0,0,0,0,0,0,0,0,0,0,0,0,0,0
PAK4 (UniProt O96013),0,0,0,0,0,0,0,0,0,0,0,0,0,0,0,0,0,0,0,0
SPHK1 (UniProt Q9NYA1),0,0,0,0,0,0,0,0,0,0,0,0,0,0,0,0,0,1,0,0
STK38 (UniProt Q15208),0,0,0,0,0,0,0,0,0,0,0,0,0,0,0,1,0,1,1,0
CSNK1A1 (UniProt P48729),0,0,0,0,0,0,0,0,0,0,0,0,0,0,0,0,0,0,1,0
BTK (UniProt Q06187),0,0,0,0,0,0,0,0,0,0,0,0,0,0,0,0,0,1,0,0
PTK2 (UniProt Q05397),0,0,0,0,0,0,0,0,0,0,0,0,0,0,0,0,0,2,1,0
ARAF (UniProt P10398),0,0,0,0,0,0,0,0,0,0,0,0,0,0,0,0,0,1,0,0
NTRK2 (UniProt Q16620),0,0,0,0,0,0,0,0,0,0,0,0,0,0,0,0,0,0,0,0
NTRK3 (UniProt Q16288),0,0,0,0,0,0,0,0,0,0,0,0,0,0,0,0,0,0,0,0
FLT3 (UniProt P36888),0,0,0,0,0,0,0,0,0,0,0,0,0,0,0,0,3,2,1,0
EGFR (UniProt P00533),0,0,0,0,0,0,0,0,0,0,0,0,0,0,0,0,0,2,0,0
LMTK2 (UniProt Q8IWU2),0,0,0,0,0,0,0,0,0,0,0,0,0,0,0,0,0,2,0,0
EGFR_T790M (UniProt P00533),0,0,0,0,0,0,0,0,0,0,0,0,0,0,0,0,0,0,0,0
CSNK1D (UniProt P48730),0,0,0,0,0,0,0,0,0,0,0,0,0,0,0,0,0,0,1,0
FGFR2 (UniProt P21802),0,0,0,0,0,0,0,0,0,0,0,0,0,0,0,1,3,1,3,0
PIK4CB (UniProt Q9UBF8),0,0,0,0,0,0,0,0,0,0,0,0,0,0,0,2,0,2,1,0

# Quoted from the listing.
# For number of time points (GAK inhibitor 49), ARAF (UniProt P10398) has 0
# For number of time points (Cabozantinib), PAK4 (UniProt O96013) has 0
